Some of the results follow.
molecular target: OsWRKY34 (Oryza sativa, UniProt Q0JBA9 1-250); test: protein-binding microarray (RPBM); PBS, 2% BSA, 51.3 ng/ul salmon testes DNA, 50 uM zinc acetate, 200 nM TF, 25 C, 1 h; high values mean tight binding; settings: protein: recombinant; tags: N-terminal polyhistidine and DsRed monomer fusion (pET32a); label: CyDye5-dUTP incorporated in the synthesized complementary strand; 3' TTTTT single-stranded linker to array surface; dsDNA, one strand shown
How it was run: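 Transcription factors, each fused N-terminally to a polyhistidine tag and DsRed, were expressed in E. coli BL21-CodonPlus and purified on Ni–NTA. A custom Agilent array was made double-stranded by primer extension with Cy5-dUTP and blocked with 2% BSA. It was incubated with 200 nM protein in PBS, 2% BSA, salmon testes DNA and 50 µM zinc acetate at 25 °C for 1 h, then washed. The binding signal is per-feature fluorescence intensity (arbitrary units) read on an Axon 4000B scanner.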

Amino acid sequences for entries named in this document (tags omitted).
UniProt Q0JBA9, entry or part of it: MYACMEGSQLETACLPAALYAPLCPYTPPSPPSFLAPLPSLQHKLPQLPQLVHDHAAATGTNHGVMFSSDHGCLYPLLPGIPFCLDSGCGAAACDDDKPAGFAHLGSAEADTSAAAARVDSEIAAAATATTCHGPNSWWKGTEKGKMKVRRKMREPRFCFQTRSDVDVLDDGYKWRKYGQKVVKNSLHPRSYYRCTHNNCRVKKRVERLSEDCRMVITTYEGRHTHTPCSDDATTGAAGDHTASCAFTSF

Sequence	binding signal
CATGAGTCGGATCGTGTGGTTGTTGTGTATGCTTCACTGACGGAGTCACCTAGTGCAG	10400 fluorescence intensity (a.u.)
TTCCTAACTCACCTATCTCCTTTTTTCACACGCACGTTTTCGGAGTCACCTAGTGCAG	8230 fluorescence intensity (a.u.)
TTCCGCGTCAACCACCACCGCGCCGGCGTGCGCCTCCGCGCGGAGTCACCTAGTGCAG	10300 fluorescence intensity (a.u.)
GTCTAAAGTCGTCTGTCTAGAAAGTGGGGTTATAGTGTGGCGGAGTCACCTAGTGCAG	8520 fluorescence intensity (a.u.)
TGTGCGATAATGTTTTCTGCTCAGTGCTTCTGGTTCACGTCGGAGTCACCTAGTGCAG	10800 fluorescence intensity (a.u.)
AGTGTAATTAATGGGCTTCTTTTCGATGGCTCTTGTTGGGCGGAGTCACCTAGTGCAG	8860 fluorescence intensity (a.u.)
CCATTAAAAACCACATCGTTCCTGTTTGACCATATCGCTACGGAGTCACCTAGTGCAG	10900 fluorescence intensity (a.u.)
ATAATCCCTATCCTTCCCAAACGGGCCCGTCGCCTAATCACGGAGTCACCTAGTGCAG	10700 fluorescence intensity (a.u.)
ACTATCGAGTACATCTCTGAAATGTTTAACTTTCAAACAGCGGAGTCACCTAGTGCAG	8050 fluorescence intensity (a.u.)
ACCTCTGCTTTCAATCCCAGTTCACTCTTCTTCTCTCGTACGGAGTCACCTAGTGCAG	8940 fluorescence intensity (a.u.)
AAAGTCTCTTCGCCTTATAACTCCATCTCCAGCGCCTCTTCGGAGTCACCTAGTGCAG	8050 fluorescence intensity (a.u.)
GTCAACCCTACTCCAGCTCGGTTTCAGCTCTACAGTGACTCGGAGTCACCTAGTGCAG	9330 fluorescence intensity (a.u.)
GCCATCTCCGCCTCTCCTCGCCACCACACCACTCCTCTCGCGGAGTCACCTAGTGCAG	8110 fluorescence intensity (a.u.)
CGAGGCGGAATGGGGCGGAGGAGGAGGAGGAGGAGGGAGGCGGAGTCACCTAGTGCAG	13000 fluorescence intensity (a.u.)
GGAAGGTATCACCAGATCTGGGTTGAGGGTGTGGGAGCTCCGGAGTCACCTAGTGCAG	8900 fluorescence intensity (a.u.)
AACATTGTGTCCATTGTCTTCGATCCCTCTGTCGATCTCTCGGAGTCACCTAGTGCAG	8810 fluorescence intensity (a.u.)
ATTTACATTCCTATCAAAATTTTAAATTTTTTCTATTTCTCGGAGTCACCTAGTGCAG	8780 fluorescence intensity (a.u.)
AATTGAGAGTTGTTTATAGTTGGGGTTTATGGATTTAGGGCGGAGTCACCTAGTGCAG	8290 fluorescence intensity (a.u.)
GCCGCTAGTGTCTCTAATATGTTGTCTCGTGGAAAATTTTCGGAGTCACCTAGTGCAG	10000 fluorescence intensity (a.u.)
GCGCGCGGGTGAGGAGGAGGAGGGGATGGGGAGGGGCCCGCGGAGTCACCTAGTGCAG	17700 fluorescence intensity (a.u.)
CCAGGTGTACACAGCTCCGACCAGCTTCCTTCACCAATACCGGAGTCACCTAGTGCAG	8910 fluorescence intensity (a.u.)

6 records drawn at random from those above:
Sequence	binding signal
GCGCGCGGGTGAGGAGGAGGAGGGGATGGGGAGGGGCCCGCGGAGTCACCTAGTGCAG	17700 fluorescence intensity (a.u.)
CCATTAAAAACCACATCGTTCCTGTTTGACCATATCGCTACGGAGTCACCTAGTGCAG	10900 fluorescence intensity (a.u.)
TTCCGCGTCAACCACCACCGCGCCGGCGTGCGCCTCCGCGCGGAGTCACCTAGTGCAG	10300 fluorescence intensity (a.u.)
GGAAGGTATCACCAGATCTGGGTTGAGGGTGTGGGAGCTCCGGAGTCACCTAGTGCAG	8900 fluorescence intensity (a.u.)
TTCCTAACTCACCTATCTCCTTTTTTCACACGCACGTTTTCGGAGTCACCTAGTGCAG	8230 fluorescence intensity (a.u.)
ACTATCGAGTACATCTCTGAAATGTTTAACTTTCAAACAGCGGAGTCACCTAGTGCAG	8050 fluorescence intensity (a.u.)

(continued)

Sequence	binding signal
TTTATTCCGAATATTAATTAATCTCGTATTGGGTTCTTATCGGAGTCACCTAGTGCAG	8510 fluorescence intensity (a.u.)
GGTTTATTTGGGTCAACGGAAGTGAATCATGTTTCTTTGACGGAGTCACCTAGTGCAG	9220 fluorescence intensity (a.u.)
AGTTAGCACTCCATAAGAAGAGTGGTTTTGGGGATTGGAACGGAGTCACCTAGTGCAG	8160 fluorescence intensity (a.u.)
CTCCTCCGCCACCGCGCTCGCCTCGCCTCACCGCTGCCTTCGGAGTCACCTAGTGCAG	10000 fluorescence intensity (a.u.)
CTTCTTTTTTTCAGCCAATCACAGTGGAGTTTCCCGTTTCCGGAGTCACCTAGTGCAG	8930 fluorescence intensity (a.u.)
ACATGTGGCCCACGTGGCATTCACGTTGACTCGGCCGTCACGGAGTCACCTAGTGCAG	8360 fluorescence intensity (a.u.)
ATGTTGCGCAACACACTCTGTCTAATTTGCATGATATCCACGGAGTCACCTAGTGCAG	11300 fluorescence intensity (a.u.)
AATTACTGCTCTTATTTCTTCAGCACAGATGTCACTAATCCGGAGTCACCTAGTGCAG	10600 fluorescence intensity (a.u.)
CTTTGAAGCCCCGGGTTTGTTGCTGATGCATGGCATTTTCCGGAGTCACCTAGTGCAG	8740 fluorescence intensity (a.u.)
GAAAACCTAGGGTTAGGTTTGGTGGGGTTGGCAGCTTTCGCGGAGTCACCTAGTGCAG	16400 fluorescence intensity (a.u.)
ACCAACTTTACTAAGTTTTCGGCTATTTTTACAGGTAATTCGGAGTCACCTAGTGCAG	11000 fluorescence intensity (a.u.)
TAAATTTTTCATAACTATTTATATCAAATTTGGAAGAAAACGGAGTCACCTAGTGCAG	11300 fluorescence intensity (a.u.)
TAACCATCAATTTCCTCCCTGTTGCCGTACACCTGCAGCTCGGAGTCACCTAGTGCAG	8160 fluorescence intensity (a.u.)
CTCCCGTCTCCTCCGCTCCTTGCGCCGCCAAGACGAGTCGCGGAGTCACCTAGTGCAG	9360 fluorescence intensity (a.u.)
TCGCACCAACTGGTTCCAATTTGATTCATCCCACGTTTCCCGGAGTCACCTAGTGCAG	10800 fluorescence intensity (a.u.)
AGTAGCAGCAGCAGCAGCAGGCAGGAGGGAGTGGGTTTGTCGGAGTCACCTAGTGCAG	9600 fluorescence intensity (a.u.)
CCCGCCACCCGTTTCGCTCCTCACCGCGGATAAAGCGCTCCGGAGTCACCTAGTGCAG	11900 fluorescence intensity (a.u.)
ACCACTAACACCGTCCTGATTCGTCAAAGGGTTTAAGCATCGGAGTCACCTAGTGCAG	8590 fluorescence intensity (a.u.)
GACTTCTCCACGTTTCTCTGTGTTTAGGCGTCGCTAGTTACGGAGTCACCTAGTGCAG	8300 fluorescence intensity (a.u.)
TTTGCAGCAGATCATGCCTCGCACATCATGCCGTTTTGTTCGGAGTCACCTAGTGCAG	8780 fluorescence intensity (a.u.)
GGGAGGGTCGGGGTCCTCAAGGTACTCGGTGGCTTCAGACCGGAGTCACCTAGTGCAG	9900 fluorescence intensity (a.u.)

Sequence	binding signal
CTCGGTTCCAAATTCCACCTGCATCGCTACTCCAACTCATCGGAGTCACCTAGTGCAG	8260 fluorescence intensity (a.u.)
GCGTTACAGTTGGAGTGGATTATTTTTTTTCCTTTGTTTTCGGAGTCACCTAGTGCAG	9850 fluorescence intensity (a.u.)
CTCCCCACCGCATCGCCATCGCGTCTCCTCGCCGTCCCACCGGAGTCACCTAGTGCAG	8230 fluorescence intensity (a.u.)
CTCCACCACGCGCGCCGCATCCATCTCCGCCAAAATCCACCGGAGTCACCTAGTGCAG	10700 fluorescence intensity (a.u.)
GACAAATATGAGATGGGGTGGTCTGTTTGGATACTTTGCACGGAGTCACCTAGTGCAG	8510 fluorescence intensity (a.u.)
CGTGTTCATATGACTAGGAGGTGTGTGTAATGTCTATGTTCGGAGTCACCTAGTGCAG	10500 fluorescence intensity (a.u.)
TTATCCATTTACAGCCCGCTTCTCATCTATCTCCTCTACTCGGAGTCACCTAGTGCAG	9960 fluorescence intensity (a.u.)
GAAATATAGACACTTCCACCCATTTGCACCGCCATTTCGACGGAGTCACCTAGTGCAG	9450 fluorescence intensity (a.u.)
TGGGCCGAATAGGTACGCACGTGGGGAGGGGCGCGCAGGGCGGAGTCACCTAGTGCAG	9390 fluorescence intensity (a.u.)
CTTCCTTACCTCGCATGCACGTACGACCAATTTCCGTTTCCGGAGTCACCTAGTGCAG	11000 fluorescence intensity (a.u.)
CCTGCTCTTATTTCTCTTCCAGCTCATCACTTCTTCTTGCCGGAGTCACCTAGTGCAG	10400 fluorescence intensity (a.u.)
CTATCACGACACGTTACATTGGTCTCCTCTCGCGCTTACTCGGAGTCACCTAGTGCAG	10900 fluorescence intensity (a.u.)
CGCGCTTTGGCATTTCTTTTCTTTTGTTTTTCTTTTTTTTCGGAGTCACCTAGTGCAG	13700 fluorescence intensity (a.u.)
CTGTGCTGCGTTCACCTATGTTTCTCGATATCACGCCTTTCGGAGTCACCTAGTGCAG	10300 fluorescence intensity (a.u.)
TCTCCCTATTTTCTCGCAATTTTTTCTCTTCTCTCGGCCGCGGAGTCACCTAGTGCAG	8530 fluorescence intensity (a.u.)
CATTATCTTTGCCTGCACACCCTTTTTTTCCCCTGATTACCGGAGTCACCTAGTGCAG	9560 fluorescence intensity (a.u.)
TCGCCGTCGCTCTTGTCGCCGTCGCGTCGCCATCCTGTCGCGGAGTCACCTAGTGCAG	8960 fluorescence intensity (a.u.)
TCTGAATCTTGAGCCATCATTTTACCTCAGTTTTCTGATTCGGAGTCACCTAGTGCAG	9750 fluorescence intensity (a.u.)
AGGGGTGCTAATTGAGCCTATTTCGGGTGGGGCTCACTGACGGAGTCACCTAGTGCAG	15300 fluorescence intensity (a.u.)
AGTCTTCTTAATGCATTGATCCCCTGTCCTCTTGCCAAAACGGAGTCACCTAGTGCAG	9820 fluorescence intensity (a.u.)
ACTGCCTCCTCACCATCCTATCTCGTCTCGTCTCCTTCTCCGGAGTCACCTAGTGCAG	11000 fluorescence intensity (a.u.)

Sequence	binding signal
TCTCCTTTCATACATGCTGTTGCTGCCACCACTACTGCTCCGGAGTCACCTAGTGCAG	9680 fluorescence intensity (a.u.)
GGTCCGCGTGGGTCCCACCATTATTATTATTATTATTTTTCGGAGTCACCTAGTGCAG	10900 fluorescence intensity (a.u.)
TTGCGGGTACTGTTGCCTATTTATATGACCATACTGTTTGCGGAGTCACCTAGTGCAG	8040 fluorescence intensity (a.u.)
GAGATCTCCATGATTGCACTCTTTTTTTTTAAGTTCTTTTCGGAGTCACCTAGTGCAG	10600 fluorescence intensity (a.u.)
ATGTTTCAAATTGTATGTGTTTATTACTACTGCTATCTTACGGAGTCACCTAGTGCAG	10100 fluorescence intensity (a.u.)
CATCCAGCATGATGCAAAAGTTTGAAATTTTAGTACTTTTCGGAGTCACCTAGTGCAG	12300 fluorescence intensity (a.u.)
GCCACTATTCACTGTCCGCCAACCGTTCGATCCCGTCTACCGGAGTCACCTAGTGCAG	11700 fluorescence intensity (a.u.)
TTTTCCTTTCTTTTTTTGGACTGTTTTACCCCTGGCCCCACGGAGTCACCTAGTGCAG	11700 fluorescence intensity (a.u.)
ATGTGATGTCTGTCTTTGTCTGTTGTGTCTTTGCTGCATGCGGAGTCACCTAGTGCAG	8180 fluorescence intensity (a.u.)
TTCCTCTATCCTTGATTGATTCTTTCTTTTATTGTTTTTTCGGAGTCACCTAGTGCAG	13200 fluorescence intensity (a.u.)
TGAACAAGTGCAAAACTGCTTCTCGTTCGGTATTCTTTCACGGAGTCACCTAGTGCAG	8090 fluorescence intensity (a.u.)
GGCCACTCGTGTCTCTCTCTCTCTCTCTCATCTCTAATTTCGGAGTCACCTAGTGCAG	8870 fluorescence intensity (a.u.)
GCAACCATGCAATTCTGTATTTATGTTAACCTTGTTGTTTCGGAGTCACCTAGTGCAG	9260 fluorescence intensity (a.u.)
GCCTCCGCCTCCGTGCGCAACCGCCGCCTCGTCCGCGACCCGGAGTCACCTAGTGCAG	11300 fluorescence intensity (a.u.)
GCCGCCGACCGCCACATATCCACACACCTCGACACGACGGCGGAGTCACCTAGTGCAG	8950 fluorescence intensity (a.u.)
CTGCCACCACCAGCTAGCACTGACCCGCCTCCTCCTTTATCGGAGTCACCTAGTGCAG	9400 fluorescence intensity (a.u.)
TCTCAATTGCACCTCATTTAATCCTCATTTTTCATCTTTTCGGAGTCACCTAGTGCAG	11800 fluorescence intensity (a.u.)
CGTCTGTTCTCGTCTTCAGCTGAATCTGATTTTGTTTACACGGAGTCACCTAGTGCAG	11200 fluorescence intensity (a.u.)
CTCCTCACTCCTATACTCACCTCATCCCTATCGTCTTGCCCGGAGTCACCTAGTGCAG	8610 fluorescence intensity (a.u.)
TGATTTTTCGTACCCAACTTTGATCGTCCGTTTTATTTGACGGAGTCACCTAGTGCAG	10200 fluorescence intensity (a.u.)
CGAACAGTCAAACATGTTTAAAAAAGTCAACGGCGTCAAACGGAGTCACCTAGTGCAG	9670 fluorescence intensity (a.u.)
